± gives the standard deviation of the averaged measurements. Only a part is listed here, and it is no random draw. This data set is noisy: repeats of one test often differ as much as different tests do.
System: FaDu
Assay: mitochondrial oxygen consumption rate normalised to cell number, Z score over the library; higher = higher oxygen consumption (negative = OCR reduction)
Details: treatment time 24 h, assay medium: 5 mM galactose, 5 mM pyruvate, 4 mM glutamine
Protocol: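 Primary screen: FaDu cells were incubated 24 h with Pharmakon 1600 / TDI oncology set compounds at 2 or 10 uM. Mitochondrial-specific OCR (basal minus 2 uM antimycin A) was measured on a Seahorse XF96 in assay medium with 5 mM galactose, 5 mM pyruvate and 4 mM glutamine, then corrected for Hoechst cell number and expressed as a Z score […]. Compounds that cut cell number by >66% were excluded. Two repeats.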

SMILES | mitochondrial oxygen consumption rate normalised (2 µM) | mitochondrial oxygen consumption rate normalised (10 µM)
N=C(N)NC(=O)Cc1c(Cl)cccc1Cl | 0.199 ± 0.068 | 
N[C@@H](Cc1cc(I)c(Oc2cc(I)c(O)c(I)c2)c(I)c1)C(=O)O | 0.754 ± 1.2 | 
CN(C)CC/C=C1/c2ccccc2Sc2ccc(Cl)cc21 | 0.0476 ± 0.38 | 
CC(=O)[C@H]1CC[C@H]2[C@@H]3CCC4=CC(=O)CC[C@]4(C)[C@H]3CC[C@]12C | -1.32 ± 0.84 | 
CN(C)CCOC(c1ccccc1)c1ccccc1 | -0.511 ± 0.6 | 
COc1ccc2[nH]c([S+]([O-])Cc3ncc(C)c(OC)c3C)nc2n1 (configuration not stated) | -0.907 ± 0.5 | 
O=C(O)CCCCC(=O)O | 0.708 ± 0.02 | 
CCN(CC)C(=O)c1cccnc1 | -0.643 ± 0.38 | -0.362 ± 0.74
CCN(CC)C(=O)c1cccc(C)c1 | -0.787 ± 0.48 | 
CCCN(CCC)S(=O)(=O)c1ccc(C(=O)O)cc1 | 0.557 ± 0.71 | 
C[C@]12CC[C@@H]3c4ccc(O)cc4CC[C@H]3[C@@H]1CC[C@@H]2O | -0.383 ± 0.83 | 
Cc1ncc(CO)c(CO)c1O | -0.357 ± 0.28 | 
CC1(C)[C@H](C(=O)O)N2C(=O)C[C@H]2S1(=O)=O | 0.232 ± 1.1 | 
CCC1(c2ccccc2)NC(=O)N(C)C1=O (configuration not stated) | -0.348 ± 0.29 | 
N[C@@H](CCC(=O)N[C@@H](CS)C(=O)NCC(=O)O)C(=O)O | -0.407 ± 0.47 | 
CC1=C(C(=O)O)N2C(=O)[C@@H](NC(=O)[C@H](N)C3=CCC=CC3)[C@H]2SC1 | 1.38 ± 0.46 | 
COc1cc(C(=O)NCCCCCC(=O)O)cc(OC)c1OC | 0.791 ± 0.3 | 
CCc1c(C)[nH]c2c1C(=O)C(CN1CCOCC1)CC2 (configuration not stated) | 1.29 ± 0.028 | 
CC1=C(/C=C/C(C)=C/C=C/C(C)=C/C(=O)O)C(C)(C)CCC1 [Tretinoin] | 0.491 ± 0.14 | 
CC1=C(/C=C/C(C)=C/C=C/C(C)=C/C(=O)O)C(C)(C)CCC1 | -0.4 ± 0.61 | 
NC[C@@H]1CC[C@@H](N)[C@@H](O[C@H]2[C@H](O)[C@@H](O[C@H]3O[C@H](CO)[C@@H](O)[C@H](N)[C@H]3O)[C@H](N)C[C@@H]2N)O1 | 0.286 ± 0.12 | 
N=C(N)NS(=O)(=O)c1ccc(N)cc1 | -0.223 ± 0.73 | 
CC(=O)Oc1ccccc1C(=O)O | -0.361 ± 1.2 | 0.27 ± 0.45

Given in markdown: entries from further up.

| SMILES | mitochondrial oxygen consumption rate normalised (2 µM) | mitochondrial oxygen consumption rate normalised (10 µM) |
| --- | --- | --- |
| CN(C)CC/C=C1/c2ccccc2Sc2ccc(Cl)cc21 | 0.0476 ± 0.38 |  |
| CC(=O)[C@H]1CC[C@H]2[C@@H]3CCC4=CC(=O)CC[C@]4(C)[C@H]3CC[C@]12C | -1.32 ± 0.84 |  |
| CN(C)CCOC(c1ccccc1)c1ccccc1 | -0.511 ± 0.6 |  |
| COc1ccc2[nH]c([S+]([O-])Cc3ncc(C)c(OC)c3C)nc2n1 (configuration not stated) | -0.907 ± 0.5 |  |
| O=C(O)CCCCC(=O)O | 0.708 ± 0.02 |  |
| CCN(CC)C(=O)c1cccnc1 | -0.643 ± 0.38 | -0.362 ± 0.74 |
| CCCN(CCC)S(=O)(=O)c1ccc(C(=O)O)cc1 | 0.557 ± 0.71 |  |
| C[C@]12CC[C@@H]3c4ccc(O)cc4CC[C@H]3[C@@H]1CC[C@@H]2O | -0.383 ± 0.83 |  |
| Cc1ncc(CO)c(CO)c1O | -0.357 ± 0.28 |  |
| CCC1(c2ccccc2)NC(=O)N(C)C1=O (configuration not stated) | -0.348 ± 0.29 |  |
| N[C@@H](CCC(=O)N[C@@H](CS)C(=O)NCC(=O)O)C(=O)O | -0.407 ± 0.47 |  |
| CC1=C(C(=O)O)N2C(=O)[C@@H](NC(=O)[C@H](N)C3=CCC=CC3)[C@H]2SC1 | 1.38 ± 0.46 |  |
| COc1cc(C(=O)NCCCCCC(=O)O)cc(OC)c1OC | 0.791 ± 0.3 |  |
| CC1=C(/C=C/C(C)=C/C=C/C(C)=C/C(=O)O)C(C)(C)CCC1 [Tretinoin] | 0.491 ± 0.14 |  |
| NC[C@@H]1CC[C@@H](N)[C@@H](O[C@H]2[C@H](O)[C@@H](O[C@H]3O[C@H](CO)[C@@H](O)[C@H](N)[C@H]3O)[C@H](N)C[C@@H]2N)O1 | 0.286 ± 0.12 |  |
| N=C(N)NS(=O)(=O)c1ccc(N)cc1 | -0.223 ± 0.73 |  |

(further entries)

SMILES | mitochondrial oxygen consumption rate normalised (2 µM) | mitochondrial oxygen consumption rate normalised (10 µM)
Clc1ccc(Cn2c(CN3CCCC3)nc3ccccc32)cc1 | 0.144 ± 0.68 | 
COc1cc2nc(N(C)CCCNC(=O)C3CCCO3)nc(N)c2cc1OC (configuration not stated) | -0.277 ± 0.29 | 
CCCCCCCCCCCCCCCC(=O)OC[C@@H](NC(=O)C(Cl)Cl)[C@H](O)c1ccc([N+](=O)[O-])cc1 | -2.81 ± 0.43 | 
N[C@@H]1CONC1=O | 0.0807 ± 0.93 | 
O=C(O)COCCN1CCN(C(c2ccccc2)c2ccc(Cl)cc2)CC1 (configuration not stated) | 0.69 ± 0.87 | 
CCCCC(CC)CCC(CC(C)C)OS(=O)(=O)O (configuration not stated) | 0.429 ± 0.41 | 0.745 ± 1.4
Clc1ccc(CO/N=C(\Cn2ccnc2)c2ccc(Cl)cc2Cl)c(Cl)c1 | -0.413 ± 1.3 | 
CC(=O)O[C@]1(C(C)=O)CC[C@H]2[C@@H]3C=C(Cl)C4=CC(=O)[C@@H]5C[C@@H]5[C@]4(C)[C@H]3CC[C@@]21C | 0.275 ± 1.9 | 
O=C1c2ccccc2C(=O)C1c1ccc(Cl)cc1 | -0.273 ± 0.41 | 
C#C[C@]1(OC(C)=O)CC[C@H]2[C@@H]3CCC4=CC(=NO)CC[C@@H]4[C@H]3CC[C@@]21CC (mixture of isomers) | -0.0621 ± 0.43 | 
CCOC(=O)[C@H](CCc1ccccc1)N[C@@H](C)C(=O)N1Cc2ccccc2C[C@H]1C(=O)O | 0.106 ± 0.19 | 
CC(CCc1ccccc1)NCC(O)c1ccc(O)c(C(N)=O)c1 (configuration not stated) | 0.395 ± 0.033 | 
O=C(O)c1cccnc1Nc1cccc(C(F)(F)F)c1 | -0.0941 ± 0.38 | 
Cc1oncc1C(=O)Nc1ccc(C(F)(F)F)cc1 | 0.488 ± 0.16 | 
CC1CC(OC(=O)C(O)c2ccccc2)CC(C)(C)C1 (configuration not stated) | 0.715 ± 2 | 
C[N+](C)(C)CCCCCC[N+](C)(C)C | -0.292 ± 0.037 | 
CN(C)/N=N/c1[nH]cnc1C(N)=O [Dacarbazine] | 0.0555 ± 0.42 | 
CN(C)/N=N/c1[nH]cnc1C(N)=O | 0.561 ± 1.2 | 
Cc1onc(-c2c(Cl)cccc2Cl)c1C(=O)N[C@@H]1C(=O)N2[C@@H]1SC(C)(C)[C@@H]2C(=O)O | -0.161 ± 0.89 | 
CN1C(C)(C)CCCC1(C)C | 0.289 ± 0.16 | 
Cc1cc2c(cc1S(N)(=O)=O)S(=O)(=O)CCC2 | -0.565 ± 0.11 | 
CCCCCCc1ccc(O)cc1O.Nc1c2ccccc2nc2ccccc12 | -1.62 ± 0.36 | 
CCCCCCCCCc1ccc(OCCOCCOCCOCCOCCOCCOCCOCCOCCO)cc1 | -2.09 ± 0.89 | 

SMILES | mitochondrial oxygen consumption rate normalised (2 µM) | mitochondrial oxygen consumption rate normalised (10 µM)
CC(C)c1ccc2oc3nc(N)c(C(=O)O)cc3c(=O)c2c1 | 0.335 ± 1.2 | 
NC(=O)c1cc[n+](CC2=C(C(=O)O)N3C(=O)[C@@H](NC(=O)[C@@H](c4ccccc4)S(=O)(=O)[O-])[C@H]3SC2)cc1 | 0.126 ± 0.29 | 
CC1(C)S[C@@H]2[C@H](NC(=O)[C@H](NC(=O)N3CCNC3=O)c3ccccc3)C(=O)N2[C@H]1C(=O)O | -0.238 ± 0.32 | 
COC(=O)Nc1nc2cc(C(=O)c3ccccc3)ccc2[nH]1 | 0.432 ± 0.63 | 
CC(C(=O)O)c1ccc2c(c1)Cc1cccnc1O2 (configuration not stated) | -0.307 ± 0.18 | 
C[C@H]1COc2c(C3(N)CC3)c(F)cc3c(=O)c(C(=O)O)cn1c23 | -0.488 ± 0.1 | 
CSc1ccc2c(c1)C(N1CCN(C)CC1)Cc1ccccc1S2 (configuration not stated) | -0.649 ± 0.12 | 
CC(=O)Nc1ccccc1 | 0.0262 ± 0.18 | 
COC(=O)C1=C(C)NC(C)=C(C(=O)OCCN2CCN(C(c3ccccc3)c3ccccc3)CC2)C1c1cccc([N+](=O)[O-])c1 (configuration not stated) | 0.0396 ± 0.52 | 
C[N+]1(C)[C@@H]2CC[C@H]1C[C@@H](OC(=O)C(O)c1ccccc1)C2 (some centres not stated) | -0.635 ± 0.7 | 
CC(C)(C(=O)O)c1ccc(C(O)CCCN2CCC(C(O)(c3ccccc3)c3ccccc3)CC2)cc1 (configuration not stated) | 0.568 ± 0.45 | 
O=C[C@H](O)[C@@H](O)[C@H](O)CO | 0.563 ± 0.11 | -0.552 ± 0.11
Cc1cc(C(C)(C)C)c(O)c(C)c1CC1=NCCN1 | 0.305 ± 0.23 | 
NC(Cc1ccc(Cl)cc1)C(=O)O (configuration not stated) | 0.589 ± 0.73 | 
CN(C)CCCN1c2ccccc2Sc2ccccc21 | 0.419 ± 0.62 | 
CCCc1cc(=O)[nH]c(=S)[nH]1 | 1.08 ± 0.24 | 
COc1ccc(CCN(C)CCCC(C#N)(c2ccc(OC)c(OC)c2)C(C)C)cc1OC (configuration not stated) | 0.59 ± 0.23 | 
CN(N=O)C(=O)N[C@H]1C(O)O[C@H](CO)[C@@H](O)[C@@H]1O (mixture of isomers) | -1.06 ± 0.72 | 
CO/N=C(\C(=O)N[C@@H]1C(=O)N2C(C(=O)OCOC(=O)C(C)(C)C)=C(/C=C\c3scnc3C)CS[C@H]12)c1csc(N)n1 | 0.723 ± 0.94 | 
Oc1ncnc2[nH]ncc12 | 0.968 ± 0.95 | 
Oc1ncnc2[nH]ncc12 [Allopurinol] | 0.0104 ± 0.24 | 
C[C@]12CCC(=O)C=C1CC[C@@H]1[C@@H]2[C@@H](O)C[C@@]2(C)[C@H]1CC[C@]2(O)C(=O)CO | -0.0553 ± 1.1 | 

— the supplement of paper PMC4962491
